Experimental data: PMC8759595
Where a chain is given by its changes, count along the chain named. Results are given in words; binding and its absence hold for the method and conditions named. Binding seen in cells or lysates may run through a third protein. For some assays here: A result given as binding can be weak or reduced; the word gives no strength. Tags and fused reporters may be left off the sequences shown.

Legend:
Myc-ACBD5 S259E = target: T1, Myc-ACBD5 S259E (UniProt Q5T8D3); test: co-IP; Myc-ACBD5 constructs in COS-7 lysates treated with or without λPP for 1 h, then Myc-TRAP magnetic agarose beads 1 h at 4°C; endogenous VAPB by immunoblot (Fig. 1 C, methods in p-0042; Fig. 2 D and E)
T1 sequence: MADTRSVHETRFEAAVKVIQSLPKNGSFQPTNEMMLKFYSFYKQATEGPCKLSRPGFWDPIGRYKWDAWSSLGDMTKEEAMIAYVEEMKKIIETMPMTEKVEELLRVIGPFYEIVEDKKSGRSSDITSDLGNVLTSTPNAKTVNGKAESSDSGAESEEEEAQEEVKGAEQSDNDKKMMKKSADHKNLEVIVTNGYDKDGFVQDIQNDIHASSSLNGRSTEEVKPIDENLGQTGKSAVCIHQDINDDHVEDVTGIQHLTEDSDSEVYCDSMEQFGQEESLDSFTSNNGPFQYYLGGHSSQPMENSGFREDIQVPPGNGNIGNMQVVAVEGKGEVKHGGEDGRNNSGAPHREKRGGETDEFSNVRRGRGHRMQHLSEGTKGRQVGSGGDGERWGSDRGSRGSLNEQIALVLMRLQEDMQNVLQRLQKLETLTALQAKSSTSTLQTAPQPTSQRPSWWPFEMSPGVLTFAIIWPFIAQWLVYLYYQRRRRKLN

[1] = target: T2, Myc-ACBD5 S259E/S261E/S263E (UniProt Q5T8D3); test: as above
T2 sequence: T1 sequence with S261E, S263E

Myc-ACBD5 S263E = target: T3, Myc-ACBD5 S263E (UniProt Q5T8D3); test: as above
T3 sequence: T1 sequence with E259S, S263E

Myc-ACBD5 S261E = target: T4, Myc-ACBD5 S261E (UniProt Q5T8D3); test: as above
T4 sequence: T1 sequence with E259S, S261E

FLAG-ACBD5 (COS-7) = target: T5, FLAG-ACBD5 (COS-7) (UniProt Q5T8D3); test: condition: only lysate treated with λ protein phosphatase (λPP); co-IP; as a3, but lysates treated with λPP for 1 h before the IP (Figs. 1 E and S1 A)
T5 sequence: T1 sequence with E259S

- binding (Myc-ACBD5 S259E): binds
- binding [1]: binds
- binding (Myc-ACBD5 S263E): binds
- binding (Myc-ACBD5 S261E): binds
- binding (FLAG-ACBD5 (COS-7)): no binding
Substance: endogenous VAPB (COS-7 cells)
